Test: In vitro blood-brain barrier permeability assay
Format: in vitro ADME
Conditions: dog, 37 °C, MDR-MDCK
Method: The MDR-MDCK cell line can be used as a fast blood-brain barrier (BBB) model to aid drug discovery (Wang et al., [2005]). In this study, the MDR-MDCK cell line was used to evaluate the permeability coefficients of CS7171 and JKF-034. Briefly, CS7171 and JKF-034 were prepared to final concentrations of 5 μmol/L. The cells were dosed on the basolateral side (B-A) and apical side (A-B) and incubated at 37 °C for 90 min. Each test was performed in duplicate. The apparent permeability coefficient, Papp, was calculated using the following formula: Papp=VA/Area×Time×(drugacceptor,90-min/drugdonor,0-min×Dilution Factor
VA is the volume in the acceptor well, Area is the surface area of the membrane, Time is the total transport time in seconds, [drug]donor, 0-min is the donor drug concentration measured at 0 min; [drug]acceptor, 90-min is the acceptor drug concentration measured at 90 min; dilution factor is the degree of dilution of the donor sample before loading to LC-MS/MS. If the measured permeability coefficient (Papp) is greater than 10 × 10^−6 cm/s, it is highly likely that this compound could be efficient in crossing the BBB. […] A Papp value of 5–10 × 10^−6 cm/s indicates moderate permeability. Metoprolol was used as a highly permeable control, while atenolol was used as a low-permeability control.

Papp A→B at 90 min, 5 μmol/L (MDCK-MDR1, A-B): < 2.09 ×10⁻⁶ cm/s | Papp B→A at 90 min, 5 μmol/L (MDCK-MDR1, B-A): < 1.02 ×10⁻⁶ cm/s
Compound: CC(C)NCC(O)COc1ccc(CC(N)=O)cc1 (centres unmarked) [Atenolol, atenolol, reference compound]
